Measured values: patent publication US20160368872A1, “COMPOUNDS AND METHODS FOR TREATING CANCERS” (HEALTH RESEARCH, INC., priority 2013, published 2016)
At least one structure is not confirmed: it was looked up by name or label, or the drawing left a doubt.

Test: tissue drug concentrations in mice bearing CWR22R tumors
Format: in vivo, SCID mice
Conditions: for intra-tumor concentration compared with LC50% in vitro: after 5 IP or IV injections
Protocol: We tested these compounds in an in vivo efficacy experiment using model of CRPC in SCID mice, CWR22R. Two compounds, PLA1079 and 1125, which were synthesized in the amount of 500 mg were tested in full scale experiment with either 5 IV daily injections or 10 IP daily injections. After 5 IP or IV injections intra-tumor concentration of the compounds were measured in few mice from this experiment.
Two other compounds, PLA1148 and 1098 (PK testing in FIGS. 8 and 9) were tested in a small scale efficacy experiment. Upon PK testing of the compound PLA1148 one mouse was injected twice with 10 min interval. However the concentration of the drug in plasma of this mouse was not twice, but >4 times higher than in mice injected once. […] It was decided to utilize this observation in an attempt to get higher plasma and tumor concentration of both compounds. Therefore in the pilot efficacy experiment in the same model of CWR22R cells mice were treated with 2 IP injections with 10 minute interval. Treatment with PLA1098 was carried out for two days. […] However this is so far the highest concentration found in tumor. […]

Row | Compound | intra-tumor concentration compared with LC50% in vitro | intratumor concentration as fraction of LC50 (24 hours after last injection)
1 | CCCn1c2ccccc2c2cc(-c3nnco3)ccc21 [PLA1079] | significantly below LC50% | 
2 | CCCn1c2ccccc2c2c3c(ccc21)C(=O)N(C)C3 [PLA1098] |  | ½
3 | FCCCn1c2ccccc2c2cc(-c3nnco3)ccc21 [PLA1125] | significantly below LC50% | 
